This assay can be described thus: qHTS Assay to Find Inhibitors of Chronic Active B-Cell Receptor Signaling. Particulars: ABC-DLBCL IkBa-CBG/CBR reporter, luminescence ratio (green luciferase fused to IkBa over red control in TMD8 lymphoma cells), 4 h. The method in brief:
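Concentration-response series (up to 46 uM) were applied to TMD8 dual-reporter cells for 4 h at 37C with doxycycline. Green/red ratio, after filter-overlap correction, defined %Activity; red signal alone was normalised to basal cells and zero luminescence.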
(qHTS replaces the single test concentration by a dilution series.)

[1] abbreviates: measured here: CBR red luminescence, cell number.
Where [2] appears, read: measured here: IkBa-CBG green luminescence.

Experimental findings from PubChem BioAssay AID493014 (National Center for Advancing Translational Sciences (NCATS), 2011) are described below.

This is one part of the list. These are further read-outs of the screen, such as a control signal, another cell line or another target. No call is given for them. Most of these compounds were active or inconclusive in the main read-out, so they are no random draw. Potencies come from curve fits of mixed quality, noted in brackets.

Regarding `Cc1ccc(-c2csc3ncnc(N4CCN(C(=O)c5ccccc5)CC4)c23)cc1`, the AC50 (usually the concentration giving half of the maximal activity seen) under setting [1] was 25.9 µM [falling, single point]. With `Cc1ccc(C(=O)Nc2ccc(CC(=O)O)cc2)o1`, under setting [1], the AC50 is 0.259 µM [rising, full curve, poor fit]. `N#Cc1c(Cl)c(Cl)c2nnc(-c3ccc(Br)cc3)n2c1Cl`: the AC50 under setting [1] is 12.6 µM [falling, partial curve].

For the compound `CC1=C(C(=O)Nc2cc(C(=O)NCCC(C)C)ccc2C)SCCO1`, the AC50 under setting [1] is 35.5 µM [rising, partial curve, poor fit]. For `CCN1C(=O)/C(=C/N(C)c2ccccc2)OC1=S`, the AC50 under setting [1] is 18.4 µM [falling, single point]. In the case of `Cc1nc(NC(=O)c2ccc(Br)o2)ccc1Br`, the AC50 under setting [1] was 2.51 µM [rising, partial curve, poor fit]. Consider `O=c1cc(-c2ccc(Cl)cc2)[nH][nH]1`, for which the AC50 under setting [2] was 23.1 µM [falling, single point]. Regarding `CC(CNC(=O)COC(=O)c1cccs1)c1ccccc1` (centres undefined), the concentration at half-maximal activity (AC50) under setting [1] was 3.66 µM [rising, single point]. As to `Cc1ccc(SC(CC(=O)c2ccc(F)cc2)C(=O)O)cc1` (centres undefined), the half-maximal activity concentration (AC50) under setting [1] was 17.8 µM [falling, single point]. As to `CC1CCCCC1NC(=O)c1cc2c(s1)CS(=O)(=O)C2` (centres undefined), the half-maximal activity concentration (AC50) under setting [1] is 2.31 µM [falling, partial curve, poor fit].

Consider `COC(=O)Cc1csc(Nc2ccccc2)n1`, for which the half-maximal activity concentration (AC50) under setting [1] is 4.61 µM [rising, partial curve, poor fit]. `c1ccc2c(c1)nc(Nc1ccc(N3CCCCC3)cc1)c1nncn12`: the AC50 was 12.6 µM [rising, partial curve, poor fit] under setting [1] and 14.1 µM [falling, partial curve, poor fit] under setting [2].

On to `COc1cccc(NC(=O)CSc2nnc(-c3cc(-c4ccccn4)nc4ccccc34)o2)c1`, for which, under setting [1], the half-maximal activity concentration (AC50) was 29.1 µM [falling, single point].

Take `Cn1nnc2cc(C(=O)Nc3ccc4ccccc4c3)ccc21`: the concentration at half-maximal activity (AC50) under setting [1] was 0.0891 µM [rising, full curve, poor fit]. `COc1ccc(Nc2nc(C)cc(C)c2C(N)=O)cc1OC`: the AC50 under setting [1] was 35.5 µM [rising, partial curve, poor fit]. As to `COc1ccc(Cl)cc1NC(=O)CSc1nc(=O)[nH]c2c1CCC2`, the AC50 under setting [1] was 0.398 µM [falling, full curve, poor fit]. As to `Cc1nc2ncnn2c(C)c1CCC(=O)NC(C)c1ccc2c(c1)OCCO2` (centres undefined), under setting [1], the half-maximal activity concentration (AC50) was 10 µM [falling, partial curve]. With `CCC(=O)c1ccccc1OCCN1CCN(CC)CC1`, under setting [1], the half-maximal activity concentration (AC50) was 0.1 µM [rising, full curve, poor fit].

With `O=C(NNC(=O)c1ccc(F)cc1F)c1ccc2c(c1)OCO2`, the AC50 under setting [1] was 11.2 µM [falling, partial curve]. With `CCOC(=O)c1ccccc1NS(=O)(=O)c1ccc(OCC)cc1`, the AC50 by setting is: under setting [1], 4.61 µM [rising, full curve, poor fit]; under setting [2], 7.31 µM [falling, partial curve]. On to `Cc1cc(C)n2ncc(C(=O)NC3CCCCC3)c2n1`, for which, under setting [1], the half-maximal activity concentration (AC50) was 0.126 µM [rising, full curve, poor fit].

As for `CC(C)OC(=O)c1cc(C(=O)c2cc(Br)ccc2O)coc1=N`, under setting [1], the half-maximal activity concentration (AC50) was 17.8 µM [falling, single point].

Turning to `Cc1cc(/C=C(\C#N)C(=O)Nc2ccc(F)cc2)c(C)n1-c1ccc(N2CCOCC2)c([N+](=O)[O-])c1`, the half-maximal activity concentration (AC50) under setting [1] was 0.103 µM [rising, full curve, poor fit]. Regarding `O=C(NCc1ccco1)C1CCC(N2C(=O)C3C4CCC(C4)C3C2=O)CC1` (centres undefined), under setting [1], the AC50 is 15.8 µM [rising, partial curve, poor fit]. As to `COc1ccc2nc(NC(=O)c3ccco3)sc2c1`, under setting [1], the half-maximal activity concentration (AC50) was 2.82 µM [falling, full curve, poor fit]. With `CCN(CC)S(=O)(=O)c1ccc(NC(=O)CSc2cccc[n+]2[O-])cc1`, the AC50 under setting [1] was 0.411 µM [rising, full curve, poor fit]. As for `COc1ccc(C)cc1S(=O)(=O)Nc1ccccc1`, the half-maximal activity concentration (AC50) under setting [1] was 29.1 µM [rising, single point].

Regarding `O=C(Nc1ccc(Cl)cc1F)c1cc(S(=O)(=O)NC2CCCCCC2)ccc1F`, the AC50 under setting [1] is 7.94 µM [falling, single point]. With `COc1cccc(NC(=O)CSc2ncnc3c2cnn3Cc2ccccc2)c1`, the AC50 under setting [1] was 6.51 µM [falling, single point].

As to `FC(F)c1nc2ccccc2[nH]1`, under setting [1], the AC50 is 3.98 µM [falling, full curve, poor fit]. For `COC(=O)Nc1ccc(S(=O)(=O)N2CCCC(C(=O)N3CC(C)OC(C)C3)C2)cc1` (centres undefined), the AC50 under setting [1] is 17.8 µM [rising, partial curve, poor fit]. For `CCc1cc(=O)oc2c(C)c(OCC(=O)NCCN3CCOCC3)ccc12`, the concentration at half-maximal activity (AC50) under setting [1] is 20 µM [rising, single point].

Consider `COc1ccc(C(=O)N2CCCC(c3ccccc3)=N2)cc1`, for which the concentration at half-maximal activity (AC50) under setting [1] is 4.47 µM [falling, partial curve, poor fit]. Same read-out and setting: in the case of `COc1cc(C=C2C(=O)OC(C)(C)OC2=O)ccc1OCC(=O)Nc1ccccc1` it was 12.6 µM [falling, partial curve, poor fit].

Regarding `COc1ccc(C(=O)NCc2nnc(SCC(=O)NO)n2Cc2ccccc2)cc1`, under setting [1], the half-maximal activity concentration (AC50) is 22.4 µM [falling, partial curve, poor fit]. For `COc1cc2c(cc1OC)C(c1cccc([N+](=O)[O-])c1)NC(=O)C2` (centres undefined), the concentration at half-maximal activity (AC50) under setting [1] was 5.62 µM [rising, partial curve].

Regarding `COc1ccc(/C=N/NC(=O)c2cccc(NC(=O)c3ccccc3Cl)c2)cc1OC`, the half-maximal activity concentration (AC50) under setting [1] is 3.16 µM [falling, full curve]. For `COc1ccc2oc(C(=O)OCC(=O)NC(=O)NC(C)C)c(C)c2c1`, the AC50 under setting [1] was 29.1 µM [falling, single point]. As to `C#CCOCCOCCOCCNc1nc(N2CCN(C(=O)CCCCCCCCCCNC(=O)[C@H](CO)n3cc(CCCCCN)nn3)CC2)nc(N2CCN(C(=O)CCCCCCCCCCNC(=O)[C@H](CCCN=C(N)N)n3cc(C[C@@H](C)CC)nn3)CC2)n1`, under setting [1], the concentration at half-maximal activity (AC50) is 29.1 µM [rising, single point]. Consider `COc1ccccc1OCCNCC(O)COc1cccc2[nH]c3ccccc3c12` (centres undefined), for which the AC50 under setting [2] is 35.5 µM [rising, partial curve, poor fit].

Take `COc1cc(/C=N/n2cnnc2)ccc1OCc1ccc(C)cc1`: the AC50 under setting [1] was 0.651 µM [rising, full curve, poor fit].

Turning to `COc1ccccc1-n1ccnc(SCC(=O)NC2CCCCC2)c1=O`, under setting [1], the AC50 is 4.61 µM [falling, partial curve, poor fit]. Take `CCCc1cc(=O)oc2cc(C)c3c(C)coc3c12`: the AC50 under setting [1] is 10 µM [rising, partial curve].

Turning to `COC(=O)c1ccc(COC(=O)c2ccc(C)c(S(=O)(=O)N3CCCCC3)c2)cc1`, the half-maximal activity concentration (AC50) under setting [1] was 16.4 µM [falling, single point]. As for `CC1(C)CC(CC(=O)Nc2nccs2)(c2ccccc2)CCO1` (centres undefined), the AC50 under setting [1] is 35.5 µM [falling, single point]. Turning to `C=CCSc1nnc(-c2cc3c(-c4ccccc4)nn(C)c3s2)n1C`, under setting [1], the AC50 is 15.8 µM [falling, partial curve]. As to `C=CCn1c(SCc2cc(=O)n3ccsc3n2)nc2cc(Cl)ccc2c1=O`, the AC50 under setting [1] is 0.355 µM [rising, partial curve, poor fit]. On the same count and under the same terms, in the case of `Cc1ccc(-c2csc(NC(=O)CSc3nc4ccccc4o3)n2)cc1` it was 6.51 µM [rising, single point]; in that of `CCCCN(C(=O)c1ccc([N+](=O)[O-])s1)c1c(N)n(CC(C)C)c(=O)[nH]c1=O`, 20.6 µM [rising, partial curve, poor fit]. Turning to `CN(CCCC[C@H](CNCc1ccc(-c2ccccc2)cc1)N1C[C@H](c2ccccc2)N(CCc2ccc(Cl)c(Cl)c2)C(=O)C1=O)Cc1ccc(-c2ccccc2)cc1`, the concentration at half-maximal activity (AC50) under setting [1] was 35.5 µM [falling, single point]. As to `CCOC(=O)c1oc2ccccc2c1COC(=O)CNC(=O)c1ccc(C)cc1`, the half-maximal activity concentration (AC50) under setting [1] is 6.51 µM [rising, single point]. On the same count and under the same terms, in the case of `Cc1ccc(NC(=O)/C(=C/c2ccco2)c2ccccc2)c(C)c1` it was 18.4 µM [rising, partial curve]. Regarding `CC(C)c1nc(CN(C)C(=O)N[C@H](C(=O)N[C@@H](Cc2ccccc2)C[C@H](O)[C@H](Cc2ccccc2)NC(=O)OCc2cncs2)C(C)C)cs1`, under setting [1], the AC50 is 35.5 µM [falling, single point]. Consider `Cc1ccc(C(=O)N/C(=C\c2ccco2)C(=O)N2CCSCC2)cc1C`, for which the AC50 under setting [1] was 15.8 µM [rising, partial curve, poor fit]. In the case of `COc1cc2ncc(S(=O)(=O)c3ccccc3)c(N3CCC4(CC3)OCCO4)c2cc1OC`, the half-maximal activity concentration (AC50) under setting [1] was 10 µM [falling, partial curve, poor fit]. Take `CC1=C2C(=O)OC(c3ccoc3)C2(C)CCC1` (centres undefined): the AC50 was 20.6 µM [falling, partial curve] under setting [1] and 25.9 µM [rising, partial curve, poor fit] under setting [2]. Consider `CCOC(=O)c1ccc(NC(=S)Nc2ccc(Cl)cn2)cc1`, for which the AC50 under setting [1] was 0.398 µM [falling, full curve, poor fit].

Turning to `CC(=O)N1CCc2cc(C(=O)CN3CCN(c4ccccn4)CC3)ccc21`, the AC50 under setting [1] is 1.26 µM [rising, full curve, poor fit].

Turning to `C/C(CC(=O)Nc1ccc(Cl)cc1Cl)=N\NC(=O)c1ccco1`, the AC50 under setting [1] is 20.6 µM [falling, single point]. In the case of `Cc1ccc2c(cnn2C(=O)CCCC(=O)NCc2ccc(F)cc2)c1`, under setting [1], the half-maximal activity concentration (AC50) was 11.2 µM [rising, partial curve, poor fit]. For the compound `Cc1nc(NC(=O)c2ccco2)sc1C(=O)O`, under setting [1], the AC50 was 0.794 µM [falling, full curve].
